Test [1] addresses T1, PCDH19-HA-FLAG (Protocadherin 19, endogenous in Pcdh19-HA-FLAG mice) (mouse (endogenous in mouse brain)) (UniProt Q80TF3).
T1 sequence: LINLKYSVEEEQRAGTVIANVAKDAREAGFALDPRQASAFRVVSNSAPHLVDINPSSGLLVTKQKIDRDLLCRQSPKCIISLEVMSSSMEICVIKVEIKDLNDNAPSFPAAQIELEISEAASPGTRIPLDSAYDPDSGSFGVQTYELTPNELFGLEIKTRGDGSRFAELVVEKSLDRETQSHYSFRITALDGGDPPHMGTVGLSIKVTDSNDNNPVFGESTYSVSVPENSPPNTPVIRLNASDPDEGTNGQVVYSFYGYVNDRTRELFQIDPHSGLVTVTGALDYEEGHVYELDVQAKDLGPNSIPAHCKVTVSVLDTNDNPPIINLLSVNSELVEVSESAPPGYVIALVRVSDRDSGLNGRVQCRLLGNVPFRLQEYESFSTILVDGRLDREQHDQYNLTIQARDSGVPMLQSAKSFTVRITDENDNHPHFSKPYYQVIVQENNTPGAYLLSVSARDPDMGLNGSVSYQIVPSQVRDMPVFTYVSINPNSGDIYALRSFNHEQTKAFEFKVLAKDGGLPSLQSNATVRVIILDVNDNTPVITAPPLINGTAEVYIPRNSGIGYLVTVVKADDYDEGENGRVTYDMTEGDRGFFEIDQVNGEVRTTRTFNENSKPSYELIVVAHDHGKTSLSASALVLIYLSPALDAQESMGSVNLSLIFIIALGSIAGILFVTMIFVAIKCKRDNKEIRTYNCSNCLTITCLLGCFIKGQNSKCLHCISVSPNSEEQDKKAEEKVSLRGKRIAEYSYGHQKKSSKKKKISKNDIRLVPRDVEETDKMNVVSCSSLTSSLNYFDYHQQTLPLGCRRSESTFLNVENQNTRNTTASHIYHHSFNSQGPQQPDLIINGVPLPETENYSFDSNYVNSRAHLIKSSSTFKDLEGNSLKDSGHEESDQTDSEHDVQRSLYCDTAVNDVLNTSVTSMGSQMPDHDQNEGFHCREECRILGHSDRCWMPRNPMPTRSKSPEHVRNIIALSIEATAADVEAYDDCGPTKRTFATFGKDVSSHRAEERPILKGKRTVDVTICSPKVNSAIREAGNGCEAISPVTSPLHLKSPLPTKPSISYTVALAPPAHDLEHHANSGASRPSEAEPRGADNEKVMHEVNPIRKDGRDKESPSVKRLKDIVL
The test is described as follows: affinity purification with mass spectrometry; Experiment 1: PCDH19-HA-FLAG precipitated with anti-FLAG M2 affinity gel from E18.5 mouse cortex lysate, control untagged mice; IP Buffer (50 mM Tris-HCl pH 7.5, 150 mM NaCl, 0.2% Triton-X-100, 2 mM EDTA, 0.01% SDS), overnight 4 °C; LC-MS/MS.

The target in test [2] is T1, PCDH19-HA-FLAG (Protocadherin 19, endogenous in Pcdh19-HA-FLAG mice) (mouse (endogenous in mouse brain)). The test is described as follows: affinity purification with mass spectrometry; Experiment 2, embryonic: PCDH19-HA-FLAG precipitated with anti-FLAG M2 affinity gel from E17.5-18.5 mouse cortex and hippocampus lysate, control mouse IgG affinity gel; IP Buffer, overnight 4 °C; LC-MS/MS.

Test [3] has the same target. Description: affinity purification with mass spectrometry; Experiment 2, postnatal: PCDH19-HA-FLAG precipitated with anti-FLAG M2 affinity gel from P6-7 mouse cortex and hippocampus lysate, control mouse IgG affinity gel; IP Buffer, overnight 4 °C; LC-MS/MS.

These are yes or no findings as the source states them, for the method shown. In cells and extracts the contact can be indirect. Here binding means that the protein was enriched with, or labelled near, the bait; the list need not be complete. Where a sequence is shown, tags or fusion partners need not be part of it.

B1: Solute carrier family 25 member 4 (protein, UniProt P48962 1-298)
chain: MGDQALSFLKDFLAGGIAAAVSKTAVAPIERVKLLLQVQHASKQISAEKQYKGIIDCVVRIPKEQGFLSFWRGNLANVIRYFPTQALNFAFKDKYKQIFLGGVDRHKQFWRYFAGNLASGGAAGATSLCFVYPLDFARTRLAADVGKGSSQREFNGLGDCLTKIFKSDGLKGLYQGFSVSVQGIIIYRAAYFGVYDTAKGMLPDPKNVHIIVSWMIAQSVTAVAGLVSYPFDTVRRRMMMQSGRKGADIMYTGTLDCWRKIAKDEGANAFFKGAWSNVLRGMGGAFVLVLYDEIKKYV
With B1, the binding result in test [1] is “binds”.

B2: SOGA Family Member 3 (protein, UniProt Q6NZL0 26-945)
chain: RMHPEGCSRKQQRAQSPARPRDNSLRQTAGATRSPLGVGPKLNSVRQQQLQQQQQQGNKITGRSTSGTGSRGLGGGAEKAVPSIPKGAVPGAVQPAPGAEGSPAAILASVSFRRSGQPEEAPREIESGPSKVGEPPPLGGVGGGGEGGGAGGGPGDREGGAPQPPPPRGWRGKGVRATQRGSSVAEGVSPSPPTAATSKTPGPGSRNSGSGSTGSGSGGGGSYWKEGCLQSELIQFHLKKERAAAAAAAAQMHTKNGGGGSRSSPVAGAPAICEPLVVPSSSPMAAAAEGPQQSAEGNGSGGAMQAAAPPSSQPHSQQLQEQEDMQEEMEKLREENETLKNEIDELRTEMDEMRDTFFEEDACQLQEMRHELERANKNCRILQYRLRKAERKRLRYAQTGEIDGELLRSLEQDLKVAKDVSVRLHHELENVEEKRTTTEDENEKLRQQLIEVEIAKQALQNELEKMKELSLKRRGSKDLPKSEKKAQQTPTEDDNEDLKCQLQFVKEEAALMRKKMAKIDKEKDRFEHELQKYRSFYGDLDSPLPKGEAGGPPSTREAELKLRLRLVEEEANILGRKIVELEVENRGLKAELDDLRGEDFNGSSNPLMREQSESLSELRQHLQLVEDETELLRRNVADLEEQNKRITAELNKYKYKSSGHDSSRHHDNAKTEALQEELKAARLQINELSGKVMQLQYENRVLMSNMQRYDLASHLGIRGSPRDSDAESDAGKKESDDDSRPPHRKREGPIGGESDSEEVRNIRSLTPTRSFYPTPGPWPKSFSDRQQMKDIRSEAERLGKTIDRLIADTSTIITEARIYVANGDLFGLMDEEDDGSRIREHELLYRINAQMKAFRKELQTFIDRLEVPKSADDRGAEEPISVSQMFQPIILLILILVLFSSLSYTTIFKLVFLFTLFFVL
In the case of B2, the binding result in test [2] and in test [3] was “binds” each time.

B3: SH3 And Multiple Ankyrin Repeat Domains 2 (protein, UniProt Q80Z38 1-1476)
chain: MKSLLNAFTKKEVPFREAPAYSNRRRRPPNTLAAPRVLLRSNSDNNLNAGAPEWAVCSAATSHRSLSPQLLQQTPSKPDGATKSLGSYTPGPRSRSPSLNRLGGTAEDGKRTQPHWHVGSPFTPGANKDSLSTFEYPGPRRKLYSAVPGRLFVAVKPYQPQVDGEIPLHRGDRVKVLSIGEGGFWEGSARGHIGWFPAECVEEVQCKPRDSQAETRADRSKKLFRHYTVGSYDSFDAASDCIIEDKTVVLQKKDNEGFGFVLRGAKADTPIEEFTPTPAFPALQYLESVDEGGVAWQAGLRTGDFLIEVNNENVVKVGHRQVVNMIRQGGNHLILKVVTVTRNLDPDDTARKKAPPPPKRAPTTALTLRSKSMTAELEELGLSLVDKASVRKKKDKPEEIVPASKPSRTAENVAIESRVATIKQRPTSRCFPAASDVNSVYERQGIAVMTPTVPGSPKGPFLGLPRGTMRRQKSIDSRIFLSGITEEERQFLAPPMLKFTRSLSMPDTSEDIPPPPQSVPPSPPPPSPTTYNCPRSPTPRVYGTIKPAFNQNPVVAKVPPATRSDTVATMMREKGMFYRRELDRFSLDSEDVYSRSPAPQAAFRTKRGQMPENPYSEVGKIASKAVYVPAKPARRKGVLVKQSNVEDSPEKTCSIPIPTIIVKEPSTSSSGKSSQGSSMEIDPQATEPGQLRPDDSLTVSSPFAAAIAGAVRDREKRLEARRNSPAFLSTDLGDEDVGLGPPAPRMQASKFPEEGGFGDEDETEQPLLPTPGAAPRELENHFLGGGEAGAQGEAGGPLSSTSKAKGPESGPAAPLKSSSPAGPENYVHPLTGRLLDPSSPLALALSARDRAMQESQQGHKGEAPKADLNKPLYIDTKMRPSVESGFPPVTRQNTRGPLRRQETENKYETDLGKDRRADDKKNMLINIVDTAQQKSAGLLMVHTVDVPMAGPPLEEEEDREDGDTKPDHSPSTVPEGVPKTEGALQISAAPEPAVAPGRTIVAAGSVEEAVILPFRIPPPPLASVDLDEDFLFTEPLPPPLEFANSFDIPDDRAASVPALADLVKQKKNDTSQPPTLNSSQPANSTDSKKPAGISNCLPSSFLPPPESFDAVTDSGIEEVDSRSSSDHHLETTSTISTVSSISTLSSEGGESMDTCTVYADGQAFVVDKPPVPPKPKMKPIVHKSNALYQDTLPEEDTDGFVIPPPAPPPPPGSAQAGVAKVIQPRTSKLWGDVPEVKSPILSGPKANVISELNSILQQMNRGKSVKPGEGLELPVGAKSANLAPRSPEVMSTVSGTRSTTVTFTVRPGTSQPITLQSRPPDYESRTSGPRRAPSPVVSPTELSKEILPTPPPPSATAASPSPTLSDVFSLPSQSPAGDLFGLNPAGRSRSPSPSILQQPISNKPFTTKPVHLWTKPDVADWLESLNLGEHKETFMDNEIDGSHLPNLQKEDLIDLGVTRVGHRMNIERALKQLLDR
Regarding B3, the binding result in test [1] was “binds”.

B4: Sorbin and SH3 domain containing 2 (protein, UniProt Q3UTJ2 1-1180)
chain: MNTDSGGCARKRAAMSVTLTSVKRVQSSPNLLAAGRESQSPDSAWRSYNDRNPETLNGDATYSSLAAKGFRSVRPNLQDKRSPTQSQITINGNSGGAVSPVSYYQRPFSPSAYSLPASLNSSIIMQHGRSLDSAETYSQHAQSLDGTMGSSIPLYRSSEEEKRVTVIKAPHYPGIGPVDESGIPTAIRTTVDRPKDWYKTMFKQIHMVHKPGLYNSPYSAQSHPAAKTQTYRPLSKSHSDNGTDAFKEVPSPVPPPHVPPRPRDQSSTLKHDWDPPDRKVDTRKFRSEPRSIFEYEPGKSSILQHERPVSIYQSSIDRSLERPSSSASMAGDFRKRRKSEPAVGPLRGLGDQSSSRTSPGRADLPGSSSTFTKSFISSSPSSPSRAQGGDDSKMCPPLCSYSGLNGTPSGELECCNAYRQHLDVPGDSQRAITFKNGWQMARQNAEIWSSTEETVSPKIKSRSCDDLLNDDCDSFPDPKTKSESMGSLLCEEDSKESCPMTWASPYIQEVCGNSRSRLKHRSAHNAPGFLKMYKKMHRINRKDLMNSEVICSVKSRILQYEKEQQHRGLLHGWSQSSTEEVPRDVVPTRISEFEKLIQKSKSMPNLGDEMLSPITLEPPQNGLCPKRRFSIESLLEEETQVRHPSQGQRSCKSNTLVPIHIEVTSDEQPRTHMEFSDSDQDGVVSDHSDYVHVEGSSFCSESDFDHFSFTSSESFYGSSHHHHHHHHHHRHLISSCKGRCPASYTRFTTMLKHERAKHENMDRPRRQEMDPGLSKLAFLVSPVPFRRKKILTPQKQTEKAKCKASVVEALDSALKDICDQIKAEKRRGSLPDNSILHRLISELLPQIPERNSSLHALKRSPMHQPFHPLPPDGASHCPLYQNDCGRMPHSASFPDVDTTSNYHAQDYGSALSLQDHESPRSYSSTLTDLGRSASRERRGTPEKEKLPAKAVYDFKAQTSKELSFKKGDTVYILRKIDQNWYEGEHHGRVGIFPISYVEKLTPPEKAQPARPPPPVQPGEIGEAIAKYNFNADTNVELSLRKGDRIILLKRVDQNWYEGKIPGTNRQGIFPVSYVEVVKRNAKGAEDYPDPPLPHSYSSDRIYTLSSNKPQRPGFSHENIQGGGEPFQALYNYTPRNEDELELRESDVVDVMEKCDDGWFVGTSRRTKFFGTFPGNYVKRL
Take B4: in test [1], the binding entry is listed as “binds”.

The record behind these values is paper PMC11408250.
